# Measurements taken from PubChem BioAssay AID504834 (National Center for Advancing Translational Sciences (NCATS), 2011).
# In all, about 320,000 compounds went through this assay and about 22,000 (6.9%) were called active. This list was built around the results that the source calls inconclusive (neither active nor inactive); the mix of calls is not that of the screen. Calls come from the whole dose curve; as a rule, active = well fitted inhibition curve with a large enough effect; inconclusive = small, poorly fitted or top-dose-only effect, or another doubt; inactive = no such curve, though single readings can be large or run the other way. Where the call is inconclusive, the potency comes from a doubtful curve fit.
# Experiment: Primary qHTS for delayed death inhibitors of the malarial parasite plastid, 96 hour incubation
# Details: P. falciparum luciferase reporter growth; series mostly up to 28.7 µM
# Outline: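 Readout is luminescence from an integrated firefly luciferase in P. falciparum. Red cells, 2% hematocrit and 0.05% parasitemia final, were cultured with compound through two parasite generations (96 hours) at 37 C, 5% CO2.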
# Potency is the fitted concentration of half-maximal effect.
row,Compound,Potency
1,CC1CCN(c2cc(N3CCC(C)CC3)c([N+](=O)[O-])cc2/C=C(\C#N)c2nn(-c3ccccc3)c(N)c2C#N)CC1,"inconclusive: 2.62 µM [inhibitor, partial curve, poor fit]"
2,Cc1c(C(=O)NCC2CCCO2)oc2ccccc12 (stereo unspecified),inactive
3,CC(C)CCNC(=O)c1ccc(-c2ccccc2)cc1,inactive
4,C=CCOc1ccc(/C=N/NC(=O)C2CCCC2)cc1OCC,"inconclusive: 0.037 µM [inhibitor, full curve, poor fit]"
5,CN(C)C(=S)SCC(=O)NCc1ccc(F)cc1,"inconclusive: 4.15 µM [inhibitor, single point]"
6,C(=N\N=C\c1cccnc1)/c1cccnc1,"inconclusive: 10.4 µM [inhibitor, single point]"
7,O=C(Nc1ccccc1)C1=C[C@@H](c2ccc(Br)cc2)C[C@@H](OCc2ccc(CO)cc2)O1,"inconclusive: 11.7 µM [inhibitor, partial curve, poor fit]"
8,Cc1cc(-c2csc(NC(=O)c3ccc(=O)[nH]c3)n2)c(C)n1Cc1ccco1,"inconclusive: 1.31 µM [inhibitor, full curve]"
9,Cc1cc(CNC(=O)COc2cc(F)ccc2[N+](=O)[O-])c2ccccc2n1,"inconclusive: 18.5 µM [inhibitor, single point]"
10,CC1CN(C(=O)C(Sc2ccccc2)c2ccccc2)CC(C)O1 (stereo unspecified),active: 10.4 µM
11,CCOC(=O)c1c(NC(=O)C(Sc2ccccc2)c2ccccc2)sc(C(=O)N(C)C)c1C (stereo unspecified),"inconclusive: 14.7 µM [inhibitor, partial curve, poor fit]"
12,CCN(CC(=O)NCc1ccc(Cl)cc1)C(=O)CSc1ccc(Br)cc1,"inconclusive: 14.7 µM [inhibitor, single point]"
13,CCC(=O)NC1=C(Nc2ccc(N)cc2)C(=O)c2ccccc2C1=O,"inconclusive: 16.5 µM [inhibitor, single point]"
14,CC1(C)CC(N2CCN(Cc3ccccc3)CC2)=CC(=[N+]2CCCCC2)C1,active: 0.522 µM
15,COc1cccc(CNC(=O)C2CCC(=O)N(CC3CCCCC3)C2)c1OC (stereo unspecified),inactive
16,CCOC(=O)C1=C(C)NC(C)=C(C(=O)OCCNC(=O)c2cccnc2)C1c1cccc([N+](=O)[O-])c1 (stereo unspecified),active: 9.28 µM
17,CCc1ccc(NC(=O)C(=S)NC2CCCCC2)cc1,inactive
18,CCC[C@@H](CNC)NC[C@H](Cc1ccccc1)NCCCCc1ccccc1,active: 1.65 µM
19,CC(C)CCSc1cc(NCCO)c([N+](=O)[O-])c2nonc12,inactive
20,O=C1CCCN1CCCN1CC(C(=O)N(CCO)Cc2ccccc2)CCC1=O (stereo unspecified),"inconclusive: 18.5 µM [inhibitor, single point]"
21,O=C(Nc1ccc(F)cc1)C1CCN(S(=O)(=O)c2ccc3[nH]c(=O)oc3c2)CC1,active: 13.1 µM
22,CC(C)COC(=O)N(C)c1ccc(C(O)(C(F)(F)F)C(F)(F)F)cc1,"inconclusive: 10.4 µM [inhibitor, single point]"

# Three compounds picked at random from the list so far, as already listed:
row,Compound,Potency
10,CC1CN(C(=O)C(Sc2ccccc2)c2ccccc2)CC(C)O1 (stereo unspecified),active: 10.4 µM
7,O=C(Nc1ccccc1)C1=C[C@@H](c2ccc(Br)cc2)C[C@@H](OCc2ccc(CO)cc2)O1,"inconclusive: 11.7 µM [inhibitor, partial curve, poor fit]"
1,CC1CCN(c2cc(N3CCC(C)CC3)c([N+](=O)[O-])cc2/C=C(\C#N)c2nn(-c3ccccc3)c(N)c2C#N)CC1,"inconclusive: 2.62 µM [inhibitor, partial curve, poor fit]"

# (continued)

row,Compound,Potency
1,O=C(Nc1ccc(N2CCN(Cc3ccccc3F)CC2)cc1)c1ccc([N+](=O)[O-])o1,"inconclusive: 11.7 µM [inhibitor, single point]"
2,CCOc1ccc(CCNC(=O)C2CC(C)=CCC2C(=O)O)cc1OCC (stereo unspecified),"inconclusive: 18.5 µM [inhibitor, single point]"
3,CCOc1ccccc1NC(=O)CSc1c(C)n[nH]c1C,"inconclusive: 10.4 µM [inhibitor, partial curve, poor fit]"
4,COc1cccc(C(=O)NCC2CCCN2S(=O)(=O)c2cccs2)c1 (stereo unspecified),inactive
5,COc1ccc(S(=O)(=O)NCC(=O)Nc2cccc(C)c2C)cc1OC,"inconclusive: 4.15 µM [inhibitor, partial curve, poor fit]"
6,CCC(=C(c1ccc(OC)cc1)c1ccc(OC)cc1)c1cn(CC(O)CN(CCO)CCO)c2ccccc12 (stereo unspecified),"inconclusive: 6.57 µM [inhibitor, partial curve, poor fit]"
7,Cn1nc(-c2ccc(C(=O)NCCO)cc2)c2ccccc2c1=O,inactive
8,Cc1onc(-c2ccccc2)c1-c1nnc(COC(=O)c2ccc(O)cc2)o1,"inconclusive: 2.62 µM [inhibitor, partial curve]"
9,Cc1nnc(SCc2cc(=O)oc3cc(O)ccc23)n1Cc1ccccc1,active: 2.08 µM
10,Cc1ccc(S(=O)(=O)Nc2ccc(Cl)cc2C(=O)c2ccc(F)cc2)cc1,"inconclusive: 18.5 µM [inhibitor, single point]"
11,O=C(COc1ccc2c(-c3ccccc3)cc(=O)oc2c1)Nc1ccc(CN2CCOCC2)cc1,"inconclusive: 2.62 µM [inhibitor, partial curve, poor fit]"
12,O=C(NN1C(=O)C2C3C=CC(C3)[C@H]2C1=O)c1cccnc1 (stereo partly specified),inactive
13,Cc1[nH][nH]c(=O)c1C(c1ccc(-c2ccc(Cl)cc2Cl)o1)c1c(C)[nH][nH]c1=O,"inconclusive: 18.5 µM [inhibitor, single point]"
14,CC(CCc1ccccc1)NC(=O)C1CCCN(C(=O)c2cc3sccc3n2C)C1 (stereo unspecified),inactive
15,COc1ccc(S(=O)(=O)N2CCC(O)(c3cccnc3)CC2)cc1OC,"inconclusive: 16.5 µM [inhibitor, partial curve, poor fit]"
16,COc1ccc(-n2c(=O)c3ccccc3c3ccccc3c2=O)cc1,"inconclusive: 18.5 µM [inhibitor, single point]"
17,CCN1CCN(c2cc(C)c3cc(NC(=S)N4CCCCC4)ccc3n2)CC1,"inconclusive: 0.185 µM [inhibitor, full curve]"
18,CCC(C)(C#CCN1CCCCC1)OC(C)=O (stereo unspecified),"inconclusive: 10.4 µM [inhibitor, partial curve]"
19,Cc1ccc(S(=O)(=O)N2CCC(C(=O)Nc3ccc(N4CCOCC4)cc3)CC2)cc1C,"inconclusive: 0.465 µM [inhibitor, partial curve, poor fit]"
20,COCCn1c(C)cc2c(c1=O)C(c1ccccc1F)C(C#N)=C(N)O2 (stereo unspecified),"inconclusive: 4.65 µM [inhibitor, partial curve]"
21,COc1ccc(-c2cc(C(=O)N3CCCCCC3)c3cc(C)ccc3n2)cc1,active: 13.1 µM
22,CCN(CC#CCC(O)(c1ccccc1)c1ccccc1)C(C)C,"inconclusive: 10.4 µM [inhibitor, single point]"

row,Compound,Potency
1,COc1ccccc1N1N=C(C(=O)c2ccccc2)C2C(=O)N(c3ccc(Br)cc3)C(=O)C21 (stereo unspecified),inactive
2,CCCCN1C(=O)/C(=C/c2ccc(N3CCCCCC3)cc2)C(=O)NC1=S,inactive
3,O=C(CS(=O)CC(=O)N(c1cccc(F)c1)C(C(=O)NC1CCCCC1)c1ccco1)Nc1ccc(F)cc1 (stereo unspecified),"inconclusive: 0.0029 µM [inhibitor, full curve, poor fit]"
4,CCC(c1nnnn1C(C)(C)CC)N1CCN(c2ccccc2F)CC1 (stereo unspecified),"inconclusive: 3.7 µM [inhibitor, full curve]"
5,CCc1cccc(CC)c1NC(=O)c1cc(CN2C(=O)c3ccccc3C2=O)ccc1OC,"inconclusive: 7.38 µM [inhibitor, partial curve, poor fit]"
6,CCOC(=O)[C@H]1[C@H]2COc3ccc(OC)cc3[C@@H]2N2C(=O)CN(Cc3ccc(F)cc3)C(=O)[C@@]12C,"inconclusive: 1.04 µM [inhibitor, partial curve, poor fit]"
7,NC(=O)c1ccsc1NC(=O)COC(=O)CCOc1ccccc1,inactive
8,Cc1cc(NC(=O)CSc2nnc(CNC(=O)c3ccc(C(C)(C)C)cc3)o2)no1,"inconclusive: 16.5 µM [inhibitor, partial curve, poor fit]"
9,Cc1cc(C)nc(-n2nc(C)cc2NC(=O)c2cccc(S(=O)(=O)N3CCOCC3)c2)n1,"inconclusive: 1.17 µM [inhibitor, partial curve, poor fit]"
10,N#Cc1ccsc1NC(=O)C1=COCCO1,"inconclusive: 2.33 µM [inhibitor, full curve]"
11,Cc1ccc2c(c1)C1CN(C)CCC1N2S(=O)(=O)c1cccc(F)c1 (stereo unspecified),"inconclusive: 18.5 µM [inhibitor, single point]"
12,O=C(CSc1nnc(-c2ccccn2)o1)Nc1ccccc1F,"inconclusive: 0.465 µM [inhibitor, partial curve, poor fit]"
13,COc1cccc(-n2c(=O)n(Cc3ccccc3)c(=O)c3[nH]cnc32)c1,inactive
14,O=C(C[n+]1cccc(CNC(=O)c2ccc(OC(F)F)cc2)c1)Nc1ccc(SC(F)F)cc1,active: 0.165 µM
15,CCCNC(=O)N1CCC(C(=O)c2cccc(F)c2)CC1,"inconclusive: 0.329 µM [inhibitor, full curve, poor fit]"
16,COC(=O)Cc1c(O)ccn(Cc2cccc3ccccc23)c1=O,"inconclusive: 0.37 µM [inhibitor, partial curve, poor fit]"
17,CCc1cc2c(SCC(=O)c3ccc(C)cc3)ncnc2s1,"inconclusive: 18.5 µM [inhibitor, single point]"
18,CC1CC/C(=C\c2ccc3c(c2)OCO3)C(=O)/C1=C/c1ccc2c(c1)OCO2 (stereo unspecified),"inconclusive: 18.5 µM [inhibitor, single point]"
19,CCOc1ccc(N2C(=O)CC(N(Cc3ccco3)C(=O)CC)C2=O)cc1 (stereo unspecified),"inconclusive: 0.329 µM [inhibitor, full curve]"
20,CN1C(=O)/C(=C/c2ccc(OCc3ccc(C(=O)O)cc3)c(Cl)c2)NC1=S,"inconclusive: 5.86 µM [inhibitor, single point]"
21,CCC(=O)NNC(=O)CCC(=O)Nc1ccccc1,inactive
22,COc1ccc(N2CCN(c3ccc(NC(=O)NN)cc3)CC2)cc1,active: 11.7 µM
